PubChem BioAssay AID1159584, Peter MacCallum Cancer Centre | 2016

Purpose: 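Genes that CDH1-null MCF10A cells selectively depend on to survive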 (primary screen)
Cell system: human MCF10A breast epithelial cells, parental and CDH1-null
Knock-down reagent: siRNA against human genes
Read-out: 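Cell viability by CellTiter-Glo ATP luminescence, each line scaled to the mean of mock wells across plates, then CDH1-null over parental ratio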
Reading the numbers: CDH1-null / parental viability ratio: higher = CDH1-null cells survive relatively better than parental; CDH1-null viability vs mock: higher = more viable CDH1-null cells
The deposit covers about 18,000 reagents; below is an unselected part. Further read-outs or replicates are left out here. No sequences are given here. Not stated in the record: the amount of reagent, the time to read-out.

| Gene | CDH1-null / parental viability ratio | CDH1-null viability vs mock (fraction of mock) |
| --- | --- | --- |
| E2F8 (E2F transcription factor 8) | 0.95 | 0.8 |
| TCHP (trichoplein keratin filament binding) | 1.05 | 1.16 |
| C2 (complement C2) | 1.27 | 0.65 |
| C17orf58 (chromosome 17 open reading frame 58) | 0.83 | 0.75 |
| TNFRSF25 (TNF receptor superfamily member 25) | 0.9 | 0.63 |
| UHMK1 (U2AF homology motif kinase 1) | 1.07 | 0.9 |
| SRSF9 (serine and arginine rich splicing factor 9) | 1.14 | 0.92 |
| TAF1D | 1.21 | 1.02 |
| TRIM61 (tripartite motif containing 61) | 0.97 | 0.77 |
| SLC12A5 | 1.22 | 1.06 |
| OR2M4 (olfactory receptor family 2 subfamily M member 4) | 1.38 | 0.36 |
| THAP12 (THAP domain containing 12) | 1 | 0.92 |
| COPS3 (COP9 signalosome subunit 3) | 1.39 | 0.86 |
| CCN2 (cellular communication network factor 2) | 0.96 | 0.81 |
| GTF2H1 (general transcription factor IIH subunit 1) | 1.08 | 1.06 |
| KCNMB4 | 1.15 | 1.24 |
| SETD5 (SET domain containing 5) | 1.29 | 0.94 |
| TMEM213 (transmembrane protein 213) | 0.71 | 0.2 |
| EDDM3B (epididymal protein 3B) | 1.33 | 0.77 |
| USF2 (upstream transcription factor 2, c-fos interacting) | 1.06 | 0.99 |
| SLC16A10 | 0.9 | 0.72 |
| USB1 (U6 snRNA biogenesis phosphodiesterase 1) | 1.06 | 0.56 |
| CBLN4 (cerebellin 4 precursor) | 1.07 | 0.64 |
| ANXA8L1 (annexin A8 like 1) | 1.1 | 0.64 |
| DNAL4 (dynein axonemal light chain 4) | 0.86 | 0.72 |
| DEAF1 (DEAF1 transcription factor) | 0.9 | 0.43 |
| LTBP4 (latent transforming growth factor beta binding protein 4) | 0.8 | 0.66 |
| UBA5 (ubiquitin like modifier activating enzyme 5) | 1.18 | 0.97 |
| DGCR8 (DGCR8 microprocessor complex subunit) | 0.61 | 0.44 |
| RPRD2 (regulation of nuclear pre-mRNA domain containing 2) | 0.94 | 0.79 |
| SULT1C4 (sulfotransferase family 1C member 4) | 1.15 | 0.9 |
| PRSS23 (serine protease 23) | 1.24 | 0.88 |
| ALDH4A1 (aldehyde dehydrogenase 4 family member A1) | 0.98 | 1.02 |
| PIK3R3 (phosphoinositide-3-kinase regulatory subunit 3) | 1.34 | 1.06 |
| POC1B (POC1 centriolar protein B) | 1.14 | 0.82 |
| ZNF33A (zinc finger protein 33A) | 1.14 | 0.91 |
| PLXNB1 (plexin B1) | 0.84 | 0.72 |
| PDE1C (phosphodiesterase 1C) | 0.96 | 0.82 |
| UQCRQ (ubiquinol-cytochrome c reductase complex III subunit VII) | 0.67 | 0.42 |
| PRAP1 (proline rich acidic protein 1) | 0.77 | 0.2 |
| LYRM4 (LYR motif containing 4) | 0.77 | 0.82 |
| ABCA5 (ATP binding cassette subfamily A member 5) | 1.21 | 1.04 |
| STX11 (syntaxin 11) | 1.3 | 1.07 |
| DGLUCY (D-glutamate cyclase) | 1.15 | 0.92 |
| EDC3 (enhancer of mRNA decapping 3) | 1.17 | 0.42 |
| FAM135B (family with sequence similarity 135 member B) | 0.93 | 0.76 |
| OR5M1 (olfactory receptor family 5 subfamily M member 1) | 1.15 | 0.77 |
| MBOAT2 (membrane bound glycerophospholipid O-acyltransferase 2) | 1.21 | 1.09 |
| GSTZ1 (glutathione S-transferase zeta 1) | 0.78 | 0.68 |
| PP2D1 (protein phosphatase 2C like domain containing 1) | 1.2 | 0.89 |
| OXA1L (OXA1L mitochondrial inner membrane insertase) | 1 | 0.6 |
| B4GALT6 (beta-1,4-galactosyltransferase 6) | 0.93 | 0.78 |
| ARFGEF2 (ARF guanine nucleotide exchange factor 2) | 1.23 | 1.07 |
| AREG (amphiregulin) | 1.07 | 0.88 |
| CRTC1 (CREB regulated transcription coactivator 1) | 0.95 | 0.54 |
| HCAR1 (hydroxycarboxylic acid receptor 1) | 0.76 | 0.75 |
| PWWP3B (PWWP domain containing 3B) | 0.97 | 0.34 |
| FCRL5 (Fc receptor like 5) | 1.36 | 1.09 |
| TRAF3IP3 (TRAF3 interacting protein 3) | 1.22 | 0.78 |
| SST (somatostatin) | 1.13 | 1.06 |
| EDA (ectodysplasin A) | 1.04 | 1.02 |
| FKBP6 (FKBP prolyl isomerase family member 6 (inactive)) | 0.73 | 0.69 |
| MAGEC2 (MAGE family member C2) | 0.93 | 0.84 |
| POLD4 (DNA polymerase delta 4, accessory subunit) | 1.12 | 0.56 |
| SH3BGR (SH3 domain binding glutamate rich protein) | 1.17 | 1.03 |
| ZNF597 (zinc finger protein 597) | 1.17 | 1.01 |
| RPL35A (ribosomal protein L35a) | 1.62 | 0.42 |
| SNHG32 (small nucleolar RNA host gene 32) | 1.02 | 0.94 |
| CHST7 (carbohydrate sulfotransferase 7) | 1.07 | 0.74 |
| QRICH1 (glutamine rich 1) | 1.28 | 0.87 |
| C1QL4 (complement C1q like 4) | 0.76 | 0.78 |
| UNG (uracil DNA glycosylase) | 1.3 | 0.69 |
| PTGER3 (prostaglandin E receptor 3) | 0.84 | 0.88 |
| MIMS1 (mitochondrial inner membrane structural 1) | 0.96 | 0.86 |
| CCZ1 (CCZ1 vacuolar protein trafficking and biogenesis associated) | 1.09 | 1.01 |
| LINC01600 (long independently transcribed non-coding RNA 1600) | 0.94 | 0.96 |
| HDAC3 (histone deacetylase 3) | 0.85 | 0.78 |
| MST1R (macrophage stimulating 1 receptor) | 0.82 | 0.61 |
| ADAR (adenosine deaminase RNA specific) | 0.89 | 0.78 |
| GPR42 (G protein-coupled receptor 42) | 1.39 | 0.93 |
| HELZ (helicase with zinc finger) | 0.78 | 0.71 |
| HMGN4 (high mobility group nucleosomal binding domain 4) | 1.58 | 0.6 |
| OR2W1 (olfactory receptor family 2 subfamily W member 1) | 0.88 | 0.38 |
| CLRN3 (clarin 3) | 0.87 | 0.97 |
| HASPIN (histone H3 associated protein kinase) | 0.89 | 0.68 |
| DCANP1 (dendritic cell associated nuclear protein 1) | 0.95 | 0.93 |
| MADD (MAP kinase activating death domain) | 0.92 | 1.1 |
